Here are results for 35 compounds from PubChem BioAssay AID1487 (National Center for Advancing Translational Sciences (NCATS), 2009).

Where “and” joins values, the source holds several entries; their conditions need not be identical. Equal entries are not always repeated. Some of the results follow. Shown are side measurements of this screen, not its main read-out; they come without a call. Compounds called inactive in the main read-out are mostly missing here. Potencies come from curve fits of mixed quality, noted in brackets.

As a reminder, the AC50 is the midpoint of the concentration-response curve, whichever way the signal moves.

A short description of the experiment: qHTS Assay for Modulators of Lamin A Splicing. Particulars: HeLa LMNA splicing GFP/RFP minigene ratio, 48 h. The gist of the method: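 S3 HeLa stable clones carrying a lamin A-EGFP splicing minigene plus DsRed2 were seeded at 600 cells/well in Opti-MEM with 2% FBS, pin-dosed and incubated 48 h at 37°C. Acumen cytometry (488 nm) gave the GFP/RFP total-intensity ratio.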
For orientation: qHTS replaces the single test concentration by a dilution series.

[1] abbreviates: measured here: GFP splicing reporter channel.
The mark [2] stands for this setting: measured here: RFP viability control channel.

Turning to `O=C(CN1C2=NCCCN2c2ccccc21)c1ccc(Cl)cc1Cl`, the AC50 was 11.2 µM [rising, partial curve, poor fit] under setting [1] and 14.1 µM [rising, partial curve, poor fit] under setting [2].

Regarding `Cn1c(C(=O)N2CCCC(C(=O)NCCCSC3CCCCC3)C2)cc2sccc21` (stereo not drawn), the AC50 under setting [2] was 12.6 µM [rising, partial curve].

Turning to `CCOC(=O)C1C(=O)C=C(c2ccc(Br)cc2)CC1c1ccco1` (stereo not drawn), the AC50 reads like this: under setting [1], 28.2 µM [falling, single point]; under setting [2], 17.8 µM [falling, single point].

Regarding `CC(C)Cc1nc2oc3c(NCCCN4CCOCC4)ncnc3c2c2c1CCC2`, under setting [1], the AC50 was 35.5 µM [rising, single point].

On to `CC(C)[N+](C)(CCOC(=O)C1c2ccccc2Oc2ccccc21)C(C)C`, for which the AC50 runs as follows: under setting [1], 11.2 µM [rising, partial curve] and 35.5 µM [rising, single point]; under setting [2], 631 nM [rising, full curve] and 25.1 µM [rising, single point].

On to `CS(=O)(=O)c1ccc(-c2nnn(CC(N)=O)n2)cc1`, for which the AC50 under setting [2] was 3.16 µM [rising, single point].

`CCOC(=O)c1c(-c2ccc(F)cc2)csc1NC(=O)CN1C(=O)NC2(CCCCC2C)C1=O` (stereo not drawn): under setting [1], the AC50 was 31.6 µM [rising, single point].

As for `Cc1cccc(C(=O)Nc2ccc(C(=O)/C=C/c3cccs3)cc2)c1`, the AC50 reads like this: under setting [1], 12.6 µM [rising, partial curve]; under setting [2], 20 µM [rising, single point].

As to `CNc1nc(-c2ccccn2)nnc1-c1ccccc1`, the half-maximal activity concentration (AC50) under setting [2] was 8.91 µM [rising, partial curve].

For the compound `CCN(CC)CCN1CCn2c3c(c4cc(C)ccc42)CCCC31` (stereo not drawn), the AC50 under setting [2] is 20 µM [rising, single point].

`Cc1nn(C)c(C)c1N1C(=O)c2cccc3c(N)ccc(c23)C1=O`: the AC50 is, setting by setting: under setting [1], 20 µM [falling, partial curve]; under setting [2], 35.5 µM [falling, single point].

As for `COc1cccc(OCC(=O)O/N=C(\N)c2ccc(OC)c(OC)c2)c1`, the concentration at half-maximal activity (AC50) under setting [2] was 15.8 µM [rising, partial curve].

Regarding `CC(C)c1nc2ccc(C(=O)NCc3ccc(F)cc3)cc2o1`, the AC50 under setting [1] is 0.562 µM [falling, full curve, poor fit].

Consider `COc1ccccc1Oc1ccc(N/C=C/C(=O)C(C)(C)C)cc1`, for which the AC50 under setting [2] is 0.00398 µM [falling, full curve, poor fit].

Turning to `CCNc1nc(C)nc2c1oc1ccccc12`, the half-maximal activity concentration (AC50) under setting [1] was 10 µM [rising, partial curve, poor fit].

In the case of `CCc1ccc(N=CC23c4ccccc4C(c4ccccc42)C2C(=O)N(c4ccc(OC)cc4)C(=O)C23)cc1` (stereo not drawn), the AC50 under setting [2] is 20 µM [falling, single point].

Regarding `O=C(CNc1ccc2c(c1)OCO2)N/N=C\c1cn(Cc2ccc(F)cc2)c2ccccc12`, the AC50 under setting [2] is 6.31 µM [rising, partial curve].

`Cc1ccc(C(=O)C2CCN(CC(=O)N3CCN(c4ccc(F)cc4)CC3)CC2)cc1`: the AC50 runs as follows: under setting [1], 15.8 µM [falling, partial curve]; under setting [2], 25.1 µM [falling, partial curve].

`N#C/C(=C/c1ccc(N2CCCCC2)o1)C(=O)Nc1ccc(Cl)cc1`: the AC50 by setting is: under setting [1], 4.47 µM [falling, full curve]; under setting [2], 4.47 µM [falling, full curve].

Consider `Cc1cccc(C)c1NC(=O)c1c(C)oc2c1C1=NCCN1C=N2`, for which the AC50 under setting [1] is 0.141 µM [falling, full curve, poor fit].

`CCCc1cc(=O)[nH]c(SCC(=O)NCCCC(=O)OCC)n1`: under setting [1], the AC50 is 0.501 µM [falling, single point].

As to `COc1ccc(NC(=O)C2CC(=O)N(Cc3ccc(C)cc3)C2)cc1S(=O)(=O)N1CCCCC1` (stereo not drawn), the AC50 is 1.12 µM [rising, partial curve] under setting [1] and 12.6 µM [rising, partial curve] under setting [2].

For the compound `Cc1ccc[n+](C(C)C(=O)c2ccc(-c3ccccc3)cc2)c1` (stereo not drawn), the half-maximal activity concentration (AC50) runs as follows: under setting [1], 10 µM [rising, partial curve, poor fit]; under setting [2], 15.8 µM [rising, partial curve].

Consider `NC(=S)NNc1cc(Cl)cc(Cl)c1`, for which the AC50 is 22.4 µM [rising, partial curve, poor fit] under setting [1] and 20 µM [rising, single point] under setting [2].

For `Cc1c(Cl)cccc1-n1c(SCC(=O)NCc2ccccc2)nc2n[nH]c(C)c2c1=N`, under setting [2], the AC50 was 17.8 µM [falling, partial curve, poor fit].

For `Cc1cc(N/N=C/c2ccc(O)cc2O)nc(-n2nc(C)cc2C)n1`, the AC50 under setting [2] was 8.91 µM [rising, partial curve, poor fit].

As to `O=C(CSc1nnnn1C1CC2CCC1C2)Nc1ccnc2ccccc12` (stereo not drawn), the AC50 under setting [1] was 0.0891 µM [rising, full curve, poor fit] and the AC50 under setting [2] was 0.112 µM [rising, full curve].

`CC(C(=O)NCCc1nc2ccccc2[nH]1)n1cc([N+](=O)[O-])cn1` (stereo not drawn): the AC50 under setting [2] is 0.282 µM [falling, full curve, poor fit].

Consider `Cc1ccc(-c2noc(CCC(=O)NCCCN3CCN(c4ccc(F)cc4)CC3)n2)cc1`, for which the AC50 under setting [2] is 20 µM [rising, partial curve].

For the compound `Cc1ccc(S(=O)(=O)NC(C)(C)CSc2nnc(Nc3ccccc3)s2)cc1`, under setting [2], the concentration at half-maximal activity (AC50) is 31.6 µM [rising, single point].

With `COc1ccc(S(=O)(=O)N2CCCC(C(=O)Nc3cccnc3)C2)cc1Cl` (stereo not drawn), under setting [2], the AC50 was 12.6 µM [rising, partial curve].

With `Cc1nc2cc(S(=O)(=O)N3CCC(C(=O)O)CC3)ccc2n1C1CCCC1`, the AC50 under setting [1] is 10 µM [falling, partial curve] and the AC50 under setting [2] is 0.631 µM [falling, full curve].

Take `CCn1c(CN2CCOCC2)nc2cc(NC(=O)c3ccc([N+](=O)[O-])cc3)ccc21`: the AC50 under setting [2] is 7.94 µM [falling, full curve].

For the compound `Cc1c(C(=O)N(Cc2ccc(Cl)cc2)CC2CCCO2)oc2ccc(F)cc12` (stereo not drawn), the AC50 under setting [1] is 0.316 µM [falling, full curve, poor fit].

Consider `Cc1cc(C)n(CC(=O)N/N=C/c2cccc([N+](=O)[O-])c2)n1`, for which the AC50 is 11.2 µM [rising, single point] under setting [1] and 15.8 µM [rising, single point] under setting [2].
